Source: the supplement of paper PMC10470496
Where a name gives a salt, the structure may show the parent alone. The list shows a part of the results. Repeats are few or missing, and single values can be far off.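 The three strains are clinical Candida auris isolates from the CDC resistance isolate bank, from clades III, IV and I, grown in RPMI-1640 at 35°C. Growth is background-corrected OD600 relative to vehicle-only wells on the same plate; a hit meant over 50% inhibition in at least two strains plus a plate-corrected B-score above 0.1.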

System: C. auris AR-387
Assay: growth relative to vehicle control (OD600 ratio) (fraction); higher = less inhibition
Conditions: 10 µM; 24 h

Q: For `CC(=O)OC(C)C[N+](C)(C)C` (configuration not stated) [Methacholine chloride], which growth is on record?
A: 0.75

Q: With `CCCC1O[C@@H]2C[C@H]3[C@@H]4CCC5=CC(=O)C=C[C@]5(C)[C@H]4[C@@H](O)C[C@]3(C)[C@]2(C(=O)CO)O1` (some centres not stated) [Budesonide] as the compound, how does the growth read?
A: 1.12

Q: Which growth does the source give for `COCCCOc1ccnc(C[S+]([O-])c2nc3ccccc3[nH]2)c1C` (configuration not stated) [Rebeprazole sodium] here?
A: 0.7

Q: Which growth does the source give for `Cc1nc2c([nH]1)-c1ccccc1N(C(=O)c1ccc(NC(=O)c3ccccc3-c3ccccc3)cc1)CC2` [Conivaptan HCl] here?
A: 1.09

Q: How did the growth turn out when `O=C1CN(/N=C/c2ccc([N+](=O)[O-])o2)C(=O)N1` [Nitrofurantoin] was run?
A: 0.65

Q: `Cc1noc(NS(=O)(=O)c2ccc(N)cc2)c1C` [Sulfisoxazole] was tested. Which growth did it give?
A: 0.76

Q: For `C[C@@H]1C[C@H]2[C@@H]3CCC4=CC(=O)C=C[C@]4(C)[C@@]3(F)[C@@H](O)C[C@]2(C)[C@@]1(O)C(=O)CO` [Dexamethasone (DHAP)], which growth is on record?
A: 0.72

Q: How did the growth turn out when `COc1cc2nc(N3CCN(C(=O)C4CCCO4)CC3)nc(N)c2cc1OC` (configuration not stated) [Terazosin HCl] was run?
A: 0.67

Q: Which growth does the source give for `COCCCN1CCC(NC(=O)c2cc(Cl)c(N)c3c2OCC3)CC1` [Prucalopride] here?
A: 1.05

Q: `COc1cccc2c1C(=O)c1c(O)c3c(c(O)c1C2=O)C[C@@](O)(C(C)=O)C[C@@H]3O[C@H]1C[C@H](N)[C@H](O)[C@H](C)O1` [Daunorubicin HCl] was tested. Which growth did it give?
A: 0.54

Q: For `CC(=O)OCC[N+](C)(C)C` [Acetylcholine Chloride], which growth is on record?
A: 0.81

Q: With `NC(=O)N1CCC(CC(=O)N2CCC([C@H]3c4ncc(Br)cc4CCc4cc(Cl)cc(Br)c43)CC2)CC1` [Lonafarnib] as the compound, how does the growth read?
A: 1.11
